Results from publication PMC11315920.
No constants are given. Whether binding was seen depends on the method and setting. Binding seen in cells or lysates may run through a third protein. Here binding means that the protein was enriched with, or labelled near, the bait; the list need not be complete.

Sequences of proteins named here, by UniProt entry; tags and fusion partners are left off.
UniProt P24782: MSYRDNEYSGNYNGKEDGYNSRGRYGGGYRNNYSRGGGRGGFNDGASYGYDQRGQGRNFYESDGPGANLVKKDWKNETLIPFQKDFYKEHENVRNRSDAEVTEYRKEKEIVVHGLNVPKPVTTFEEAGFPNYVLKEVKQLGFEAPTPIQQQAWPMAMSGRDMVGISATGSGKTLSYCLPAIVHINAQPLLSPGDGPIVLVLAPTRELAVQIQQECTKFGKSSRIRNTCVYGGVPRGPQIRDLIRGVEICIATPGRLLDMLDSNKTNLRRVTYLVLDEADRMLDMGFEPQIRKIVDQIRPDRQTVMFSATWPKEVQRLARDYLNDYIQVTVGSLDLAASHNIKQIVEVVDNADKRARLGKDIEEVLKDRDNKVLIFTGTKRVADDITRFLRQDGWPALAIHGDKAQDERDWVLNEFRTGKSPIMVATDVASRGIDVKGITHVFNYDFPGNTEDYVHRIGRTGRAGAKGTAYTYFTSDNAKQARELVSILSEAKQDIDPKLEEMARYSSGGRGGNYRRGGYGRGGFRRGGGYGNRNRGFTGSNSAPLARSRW
UniProt P36594: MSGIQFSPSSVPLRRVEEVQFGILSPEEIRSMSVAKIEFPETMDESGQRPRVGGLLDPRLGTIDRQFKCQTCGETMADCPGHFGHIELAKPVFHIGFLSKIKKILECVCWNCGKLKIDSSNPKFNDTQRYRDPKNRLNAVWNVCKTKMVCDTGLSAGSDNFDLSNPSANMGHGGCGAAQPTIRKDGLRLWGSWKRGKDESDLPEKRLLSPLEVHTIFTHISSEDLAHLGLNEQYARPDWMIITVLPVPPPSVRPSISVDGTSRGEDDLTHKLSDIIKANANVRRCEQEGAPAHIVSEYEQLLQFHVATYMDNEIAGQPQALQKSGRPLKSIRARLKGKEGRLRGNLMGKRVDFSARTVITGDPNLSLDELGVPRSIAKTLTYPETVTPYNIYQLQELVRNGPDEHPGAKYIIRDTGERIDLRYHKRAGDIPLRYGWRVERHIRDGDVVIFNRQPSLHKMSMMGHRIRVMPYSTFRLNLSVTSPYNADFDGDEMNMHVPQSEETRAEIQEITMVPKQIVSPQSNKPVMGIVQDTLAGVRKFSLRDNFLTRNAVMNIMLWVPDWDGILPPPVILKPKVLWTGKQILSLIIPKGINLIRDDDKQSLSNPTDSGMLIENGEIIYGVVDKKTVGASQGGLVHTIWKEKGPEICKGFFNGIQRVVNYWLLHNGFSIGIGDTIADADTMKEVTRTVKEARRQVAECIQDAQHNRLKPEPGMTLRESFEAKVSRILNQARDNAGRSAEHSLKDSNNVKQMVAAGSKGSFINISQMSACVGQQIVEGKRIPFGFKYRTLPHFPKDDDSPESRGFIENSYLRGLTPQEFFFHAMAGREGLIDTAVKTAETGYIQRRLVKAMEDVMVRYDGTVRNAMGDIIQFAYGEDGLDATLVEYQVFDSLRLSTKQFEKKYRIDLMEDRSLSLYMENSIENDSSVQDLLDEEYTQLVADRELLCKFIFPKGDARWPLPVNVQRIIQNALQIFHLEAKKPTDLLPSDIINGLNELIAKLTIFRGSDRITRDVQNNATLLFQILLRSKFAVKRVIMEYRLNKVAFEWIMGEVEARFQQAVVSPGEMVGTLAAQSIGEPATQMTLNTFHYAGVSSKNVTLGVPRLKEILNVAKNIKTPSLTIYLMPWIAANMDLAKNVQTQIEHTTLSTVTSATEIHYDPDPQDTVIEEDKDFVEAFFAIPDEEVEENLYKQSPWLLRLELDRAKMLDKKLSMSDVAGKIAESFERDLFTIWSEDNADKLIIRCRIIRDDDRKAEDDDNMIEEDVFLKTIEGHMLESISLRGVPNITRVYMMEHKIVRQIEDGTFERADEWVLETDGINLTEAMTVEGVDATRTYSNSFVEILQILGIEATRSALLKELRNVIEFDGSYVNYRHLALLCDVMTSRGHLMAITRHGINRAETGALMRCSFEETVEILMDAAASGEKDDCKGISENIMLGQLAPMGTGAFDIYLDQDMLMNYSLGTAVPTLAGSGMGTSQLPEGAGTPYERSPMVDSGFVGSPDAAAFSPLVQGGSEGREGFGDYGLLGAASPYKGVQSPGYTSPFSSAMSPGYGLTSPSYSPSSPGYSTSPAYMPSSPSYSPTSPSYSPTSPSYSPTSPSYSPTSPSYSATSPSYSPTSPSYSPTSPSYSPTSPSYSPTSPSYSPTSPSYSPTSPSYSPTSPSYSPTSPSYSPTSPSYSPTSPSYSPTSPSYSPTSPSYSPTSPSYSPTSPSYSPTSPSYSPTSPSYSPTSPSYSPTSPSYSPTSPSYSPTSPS

Experiments:
[1] = target: T1, Srp2-HTP (S. pombe) (UniProt P78814); assay: affinity purification with mass spectrometry; comparative interaction profiling: cells crosslinked with 0.01% formaldehyde for 10 min at 30 °C; HTP-tagged bait on IgG-sepharose, TEV elution, Ni-NTA agarose, imidazole elution; shotgun proteomics (LFQ), Dbp2-HTP relative to Srp2-HTP, no untagged control; n = 3 biological replicates
T1 sequence: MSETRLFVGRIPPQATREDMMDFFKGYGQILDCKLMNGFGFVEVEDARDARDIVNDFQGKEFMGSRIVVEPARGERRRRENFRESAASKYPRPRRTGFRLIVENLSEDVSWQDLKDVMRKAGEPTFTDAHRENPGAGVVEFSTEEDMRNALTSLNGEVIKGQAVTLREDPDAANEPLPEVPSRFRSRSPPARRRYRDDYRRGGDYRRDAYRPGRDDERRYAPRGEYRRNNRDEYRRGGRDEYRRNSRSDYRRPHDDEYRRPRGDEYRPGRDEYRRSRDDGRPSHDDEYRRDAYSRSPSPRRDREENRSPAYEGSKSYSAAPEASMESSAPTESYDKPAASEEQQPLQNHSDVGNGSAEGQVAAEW

[2] = target: Dbp2-HTP (S. pombe) (UniProt P24782); assay: as above

**Q.** What does the source list for Rpb1 (from UniProt P36594 1-1752)?
**A.** binding [1]: binds; binding [2]: binds
